Test results taken from patent US4179516A, “Ethers of 3,4-dihydro-1-benzoxepin-5-one oxime to treat intestinal disorders” (Albert Rolland, S.A., priority 1973, dated 1979).

Experiment: in vivo
Details: mouse
Protocol: The tests were carried out on acid addition salts of the amines of the general formula.
The acute toxicity was determined in male Swiss C.D. mice weighing an average of 20 grammes, after oral administration (P.O) and intravenous administration (I.V.).

CN1[C@@H]2CC[C@H]1C[C@@H](OC(=O)C(CO)c1ccccc1)C2 (some centres unmarked) [ATROPINE, reference compound]
LD50 (iv): 90 mg/kg
LD50 (po): 600 mg/kg
